Reference: patent publication US5234949A (Academic Pharmaceuticals, Inc., priority 1992, dated 1993)

Conditions: acetate buffer

CCCCc1oc2ccccc2c1C(=O)c1cc(I)c(OCCN(CC)CC)c(I)c1 [Amiodarone, 2-n-butyl-3-(3,5-diiodo-4-β-N-diethylaminoethoxybenzoyl) benzofuran]
HPLC amiodarone peak vs amiodarone dissolved in polysorbate 80: identical
